Results are given in words; binding and its absence hold for the method and conditions named. Binding seen in cells or lysates may run through a third protein.
Target: T1, KH-type splicing regulatory protein (KSRP) (human (endogenous in Huh7)) (UniProt Q92945)
T1 sequence: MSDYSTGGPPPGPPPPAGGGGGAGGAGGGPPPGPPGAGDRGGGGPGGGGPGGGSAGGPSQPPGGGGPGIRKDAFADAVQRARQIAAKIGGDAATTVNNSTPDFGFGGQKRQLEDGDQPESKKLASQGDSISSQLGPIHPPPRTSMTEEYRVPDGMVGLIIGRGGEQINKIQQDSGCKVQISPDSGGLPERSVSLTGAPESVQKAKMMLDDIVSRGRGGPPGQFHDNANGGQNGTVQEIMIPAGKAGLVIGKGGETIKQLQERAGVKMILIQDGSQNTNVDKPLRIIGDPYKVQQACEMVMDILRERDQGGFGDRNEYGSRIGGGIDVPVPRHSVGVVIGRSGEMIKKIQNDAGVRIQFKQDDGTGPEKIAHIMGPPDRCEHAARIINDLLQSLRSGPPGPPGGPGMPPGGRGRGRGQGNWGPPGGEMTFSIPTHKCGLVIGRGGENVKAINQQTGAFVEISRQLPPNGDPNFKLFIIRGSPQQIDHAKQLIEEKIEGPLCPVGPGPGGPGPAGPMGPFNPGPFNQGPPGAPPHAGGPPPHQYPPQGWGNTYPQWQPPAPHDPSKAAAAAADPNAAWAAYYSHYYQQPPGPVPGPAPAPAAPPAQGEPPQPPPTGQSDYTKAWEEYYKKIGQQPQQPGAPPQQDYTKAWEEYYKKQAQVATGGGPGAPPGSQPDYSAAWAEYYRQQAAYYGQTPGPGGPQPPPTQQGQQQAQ
Assay: co-IP; endogenous KSRP precipitated with anti-KSRP and Protein A/G Sepharose; blotted with anti-Ago2

The chains behind the UniProt entries cited, without tags or fusion partners.
UniProt Q9UKV8: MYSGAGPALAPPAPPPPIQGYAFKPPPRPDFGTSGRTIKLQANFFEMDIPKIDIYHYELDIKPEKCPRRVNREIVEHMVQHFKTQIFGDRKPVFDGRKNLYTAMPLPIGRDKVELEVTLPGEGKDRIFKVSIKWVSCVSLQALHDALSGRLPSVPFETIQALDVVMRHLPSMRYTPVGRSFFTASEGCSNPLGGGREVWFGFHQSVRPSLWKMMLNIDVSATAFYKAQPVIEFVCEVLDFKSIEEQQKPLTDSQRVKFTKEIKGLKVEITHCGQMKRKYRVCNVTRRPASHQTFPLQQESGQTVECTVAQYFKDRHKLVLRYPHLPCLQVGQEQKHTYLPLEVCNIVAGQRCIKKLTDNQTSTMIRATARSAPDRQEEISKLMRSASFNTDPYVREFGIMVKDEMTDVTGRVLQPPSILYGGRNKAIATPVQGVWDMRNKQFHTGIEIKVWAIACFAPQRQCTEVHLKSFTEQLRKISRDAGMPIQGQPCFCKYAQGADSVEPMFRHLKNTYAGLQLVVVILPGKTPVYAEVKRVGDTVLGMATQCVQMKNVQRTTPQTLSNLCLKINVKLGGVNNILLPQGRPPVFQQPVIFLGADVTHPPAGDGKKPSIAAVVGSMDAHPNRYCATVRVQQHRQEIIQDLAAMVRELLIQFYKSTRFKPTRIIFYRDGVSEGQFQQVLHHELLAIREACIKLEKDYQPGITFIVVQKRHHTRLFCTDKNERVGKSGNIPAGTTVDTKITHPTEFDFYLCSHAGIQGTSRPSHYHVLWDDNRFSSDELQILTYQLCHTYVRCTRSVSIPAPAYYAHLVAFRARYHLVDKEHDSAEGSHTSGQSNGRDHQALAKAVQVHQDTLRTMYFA

binding: no binding
Substance: Argonaute 2 (Ago2) (from UniProt Q9UKV8 1-859)

From paper PMC3174171
